In article PMC5932465:
No constants are given. Whether binding was seen depends on the method and setting. In cells and extracts the contact can be indirect. Some results given as binding are weak or reduced against the parent protein; the word gives no strength.

Amino acid sequences for entries named in this document (tags omitted).
UniProt Q9UM54: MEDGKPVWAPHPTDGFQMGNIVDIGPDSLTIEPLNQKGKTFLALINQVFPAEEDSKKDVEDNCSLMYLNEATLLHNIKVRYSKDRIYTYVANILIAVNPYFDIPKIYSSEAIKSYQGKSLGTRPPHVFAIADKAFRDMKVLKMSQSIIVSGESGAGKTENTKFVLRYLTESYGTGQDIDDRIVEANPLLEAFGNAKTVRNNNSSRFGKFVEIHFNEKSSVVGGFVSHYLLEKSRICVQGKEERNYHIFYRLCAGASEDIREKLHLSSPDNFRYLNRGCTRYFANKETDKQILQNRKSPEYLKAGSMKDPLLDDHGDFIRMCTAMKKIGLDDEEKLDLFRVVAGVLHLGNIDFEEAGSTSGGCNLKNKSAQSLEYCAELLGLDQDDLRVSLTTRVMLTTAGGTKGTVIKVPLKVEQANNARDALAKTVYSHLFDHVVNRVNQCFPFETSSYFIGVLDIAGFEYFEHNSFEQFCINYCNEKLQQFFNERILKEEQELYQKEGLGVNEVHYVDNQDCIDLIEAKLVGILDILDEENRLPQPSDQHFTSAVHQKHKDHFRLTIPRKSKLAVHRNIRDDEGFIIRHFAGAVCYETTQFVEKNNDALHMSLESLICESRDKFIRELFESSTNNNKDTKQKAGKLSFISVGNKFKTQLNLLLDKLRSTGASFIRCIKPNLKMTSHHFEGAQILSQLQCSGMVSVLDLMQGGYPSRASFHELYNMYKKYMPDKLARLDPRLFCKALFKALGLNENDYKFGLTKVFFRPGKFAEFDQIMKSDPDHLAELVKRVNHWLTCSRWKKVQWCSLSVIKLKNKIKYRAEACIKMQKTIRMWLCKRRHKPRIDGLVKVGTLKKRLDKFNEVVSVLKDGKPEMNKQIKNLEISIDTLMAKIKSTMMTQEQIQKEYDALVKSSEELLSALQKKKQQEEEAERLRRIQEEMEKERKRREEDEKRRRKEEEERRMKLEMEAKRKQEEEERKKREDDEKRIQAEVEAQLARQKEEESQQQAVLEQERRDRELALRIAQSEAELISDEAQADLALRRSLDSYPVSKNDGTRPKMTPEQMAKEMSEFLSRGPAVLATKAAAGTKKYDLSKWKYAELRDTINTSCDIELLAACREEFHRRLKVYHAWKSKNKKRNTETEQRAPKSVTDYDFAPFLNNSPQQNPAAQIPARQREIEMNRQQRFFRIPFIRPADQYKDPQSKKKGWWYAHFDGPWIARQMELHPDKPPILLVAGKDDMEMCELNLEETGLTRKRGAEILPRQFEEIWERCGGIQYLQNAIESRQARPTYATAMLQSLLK
UniProt O60260: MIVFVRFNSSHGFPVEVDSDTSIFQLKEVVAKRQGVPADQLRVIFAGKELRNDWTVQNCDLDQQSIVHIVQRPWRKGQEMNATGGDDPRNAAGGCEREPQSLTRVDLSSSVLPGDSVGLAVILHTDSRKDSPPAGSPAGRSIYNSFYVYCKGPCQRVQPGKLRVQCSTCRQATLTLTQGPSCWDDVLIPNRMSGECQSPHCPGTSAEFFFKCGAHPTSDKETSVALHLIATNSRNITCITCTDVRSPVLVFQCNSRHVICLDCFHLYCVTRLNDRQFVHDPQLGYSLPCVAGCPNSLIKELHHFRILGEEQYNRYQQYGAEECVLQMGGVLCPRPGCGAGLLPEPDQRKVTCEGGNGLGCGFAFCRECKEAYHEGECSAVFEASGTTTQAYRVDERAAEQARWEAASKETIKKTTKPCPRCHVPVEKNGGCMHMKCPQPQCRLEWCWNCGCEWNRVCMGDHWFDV

Assays:
[1] = molecular target: endogenous MYO6 (myosin VI) (human (endogenous in HEK293)) (UniProt Q9UM54); assay: co-IP; HA-Parkin-expressing HEK293 cells, 1 h 10 μM CCCP or untreated; native lysis buffer (50 mM Tris pH 7.4, 100 mM NaCl, 1% NP-40, 5 mM MgCl2, 5 mM ATP); IP with antibodies to HA or Parkin and blot for endogenous MYO6, or IP of endogenous MYO6 and blot for Parkin; IgG control IP
HA-Parkin = HA-Parkin (UniProt O60260); assay: as above

Substance	binding [1]	binding (HA-Parkin)
HA-Parkin (from UniProt O60260 1-465) (enzyme)	binds	
endogenous MYO6 (myosin VI) (from UniProt Q9UM54 1-1294)		binds
